This is one part of the list. The main result of the screen is listed elsewhere. These columns were measured beside it and carry no call. The list favours compounds with an active or inconclusive main result. The note in brackets gives the kind of curve behind each potency; many fits are weak.
Experiment: qHTS Assay for Lipid Storage Modulators in Drosophila S3 Cells;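 for cell number change: cells counted by Cell Tracker Red CMTPX staining in the red channel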
Conditions: BODIPY lipid droplet fluorescence, 18-24 h; for cell number change: measured here: cell count max response, cells fed with added oleic acid
Procedure, shortened: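 Laser-scanning cytometry quantifies lipid droplet accumulation (500–530 nm total intensity; droplet/cell object ratio) in oleic acid-fed (400 uM added) Drosophila S3 cells treated with a concentration series. 20 uM Triacsin C defined 100% inhibition.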

[1] = measured here: cell number channel AC50, cells fed with added oleic acid
[2] = measured here: lipid fluorescence (Fed channel) AC50, cells fed with added oleic acid

Structure (SMILES) | cell number change | AC50 [1] | AC50 [2]
COc1cc(OC)c(C(=O)Nc2cc(Cl)ccc2-n2cncn2)cc1OC | 20.8% |  | 
C=CCNC(=O)c1sccc1Oc1ccc(F)cc1[N+](=O)[O-] | 16.8% | 3.26 µM [rising, single point] | 
CN(CC(=O)NCCc1ccccc1)S(=O)(=O)c1ccccc1 | 23.4% |  | 
CCOC(=O)Cn1nnc(-c2ccc(S(C)(=O)=O)cc2)n1 | -3.88% |  | 25.9 µM [falling, single point]
O=C(c1ccc(Cl)cc1)c1nnc(-c2ccncc2)o1 | -20.8% |  | 
Cn1cc(SCC(N)=O)c2ccccc21 | -13.7% |  | 14.6 µM [falling, partial curve]
O=C(O)c1ccc(OCCN2CCCC2=O)cc1 | 9.67% |  | 0.58 µM [rising, single point]
O=C(NC1CC1)C1CCN(C2CCN(C(=O)CCOc3ccccc3)CC2)CC1 | -1.55% |  | 0.206 µM [falling, full curve, poor fit]
Cc1c(/C=C(\CC(=O)O)c2nc3ccccc3s2)cc(C#N)n1C | -19% |  | 25.9 µM [falling, single point]
Cc1cc(=O)c(C(=O)O)cn1-c1ccc(C(C)C)cc1 | -38.4% |  | 
O=C(Cc1cccc2ccccc12)NCCC1=CCCCC1 | 45.1% | 7.31 µM [rising, partial curve] | 4.61 µM [falling, partial curve, poor fit]
Cc1oc2c(CN3CCC(C)CC3)c(O)ccc2c(=O)c1-c1ccccc1 | 31.9% |  | 
Cc1ccc(OCc2cc(C(=O)N3CCN(CC(=O)NC(C)C)CC3)no2)cn1 |  | 0.651 µM [falling, partial curve] | 6.51 µM [falling, single point]
O=[N+]([O-])c1ccc(O)c(-c2cc(C(F)(F)F)nc(-c3ccccc3)n2)c1 | -37.5% | 18.4 µM [falling, partial curve, poor fit] | 
CCNc1nc(NC(C)C)nc(OCCNS(=O)(=O)c2cc(C)ccc2C)n1 | -7.45% |  | 7.31 µM [rising, partial curve, poor fit]
O=C(Nc1ccc(OC(F)(F)F)cc1)N1CCN(c2ccnc3cc(Cl)ccc23)CC1 | 14.9% | 0.461 µM [rising, partial curve] | 0.259 µM [rising, full curve]
CCOc1ccc(NC2c3ccccc3C(=O)N2Cc2ccc3c(c2)OCO3)cc1 (configuration not stated) | 17.1% |  | 
CCc1ccccc1NC(=O)CCNC(=O)Cn1ccc2ccccc2c1=O | -1.9% |  | 
CN(c1ccccc1)S(=O)(=O)c1cccc(NC(=O)CSc2nncn2C)c1 | 16.6% |  | 3.66 µM [rising, partial curve, poor fit]
Cc1ccc(/C(N)=N/OC(=O)c2ccc(C)cc2Cl)cc1 | 13.5% |  | 18.4 µM [rising, single point]
Fc1ccc(-c2nc(-c3cccs3)[nH]c2-c2ccc(F)cc2)cc1 | 26.9% | 0.326 µM [rising, full curve, poor fit] | 1.16 µM [rising, partial curve]
O=C(NCCCO)C(=O)NCC(c1ccc2c(c1)OCO2)N1CCN(c2ccc(F)cc2)CC1 (configuration not stated) | 7.65% |  | 

Structure (SMILES) | cell number change | AC50 [1] | AC50 [2]
CN(Cc1cnccn1)C(=O)CC1C(=O)NCCN1Cc1ccc(F)cc1Cl (configuration not stated) | 17.8% |  | 29.1 µM [rising, single point]
Cc1ccc(NS(=O)(=O)c2csc(C(N)=O)c2)cc1C | -28.9% | 0.92 µM [falling, full curve, poor fit] | 6.51 µM [rising, partial curve, poor fit]
CCc1cc2ccc(C)c(C)c2nc1SCC(=O)NNC(=O)c1ccco1 | -5.71% |  | 29.1 µM [rising, single point]
COc1cc(NC(=O)COC(=O)/C=C/c2ccccc2Cl)cc(OC)c1 | -1.72% |  | 18.4 µM [rising, single point]
NC(=O)COC(=O)c1cccc(S(=O)(=O)N2CCCCC2)c1 |  |  | 0.13 µM [falling, single point]
CN(N=Nc1cccc([N+](=O)[O-])c1)c1ccccc1 | 79.6% | 29.1 µM [rising, single point] | 
CCCn1c(SCc2nc(-c3cccs3)no2)nnc1-c1ccncc1 | 0.334% | 2.91 µM [rising, partial curve] | 1.3 µM [rising, partial curve]
O=C(O)CCc1nc2cc3ccccc3cc2[nH]1 | 8.3% |  | 0.13 µM [falling, full curve, poor fit]
O=C(NCC(c1cccnc1)N1CCOCC1)c1ccco1 (configuration not stated) | 1.87% |  | 0.651 µM [rising, full curve]
CCc1ccc(S(=O)(=O)Nc2nnc(N)s2)cc1 | 5.47% |  | 
Cc1ccccc1CCNC(=O)CCn1nc(C)c2c(C)n(-c3ccccc3)nc2c1=O | -15.8% |  | 0.082 µM [rising, full curve, poor fit]
COc1ccc(NC2=C(Cl)C(=O)N(CCc3ccccc3)C2=O)c(OC)c1 | -31.4% | 6.51 µM [falling, single point] | 
CNC(=O)c1ccc(Nc2nc(-c3ccccc3)nc3ccccc23)cc1 | 16.2% |  | 29.1 µM [falling, single point]
COc1ccc(S(=O)(=O)N2CCN(C(=O)c3cc(C)oc3C)CC2)cc1OC | -9.35% | 0.184 µM [falling, full curve, poor fit] | 
O=C(c1ccc2ccccc2c1)N1CCN(Cc2ccccc2)CC1 |  | 6.51 µM [rising, partial curve, poor fit] | 
COC(=O)c1sccc1NC(=O)c1c(Cl)cnn1C | 14.7% |  | 1.84 µM [rising, full curve]
CCOC(=O)c1ccc(NC(=O)c2c(O)c3ccccc3n(C)c2=O)cc1 | 0.884% |  | 0.92 µM [rising, full curve]
CC(CN1CCCC1)OC(=O)c1ccc(Cl)cc1Cl (configuration not stated) | -1.59% |  | 
CCOc1cccc(C2/C(=C(/O)c3ccc4c(c3)CC(C)O4)C(=O)C(=O)N2CCN2CCOCC2)c1 (configuration not stated) | 28.1% |  | 25.9 µM [rising, single point]
Cc1ccc(S(=O)(=O)N(C)c2ccc(OCC(=O)OCc3c(C)noc3C)cc2)cc1 | -65.7% | 10.3 µM [falling, partial curve] | 14.6 µM [falling, partial curve]
Clc1nc2sccn2c1/C=N/n1cnc2ccccc21 | -14.7% |  | 
CCOC(=O)Cn1c(=O)c2c(nc3n2CCCCN3c2ccc(C)cc2)n(C)c1=O | 19% |  | 6.51 µM [rising, single point]

Structure (SMILES) | cell number change | AC50 [1] | AC50 [2]
Cc1ccc(CC2CC(=O)N(c3ccc(Cl)cn3)C2=O)cc1 (configuration not stated) | -8.93% |  | 0.731 µM [falling, full curve]
COC(=O)c1c(NC(=O)CSc2nnnn2C)sc(C)c1C | 2.31% |  | 0.164 µM [rising, full curve, poor fit]
CCn1c(CNC(=O)c2cc(OC)c(OC)c(OC)c2)cc2ccccc21 | -25.5% |  | 29.1 µM [falling, single point]
Cc1ccc(C(=O)N2CCCc3ccccc32)c(F)c1F | -25.5% |  | 
CC1CCCN(CCCNC(=O)c2ccc(CS(=O)(=O)Cc3cccc(Cl)c3)o2)C1 (configuration not stated) | -6.08% |  | 29.1 µM [falling, single point]
COc1ccc(C(=O)Nc2ccc(-c3nnn(CC(=O)N4CCN(C(=O)c5ccco5)CC4)n3)cc2)cc1 | 21.6% | 1.84 µM [rising, full curve, poor fit] | 
COC(=O)C(C#N)c1nc2ccccc2nc1N1CCN(Cc2ccc3c(c2)OCO3)CC1 (configuration not stated) | 15.2% | 2.59 µM [rising, single point] | 
CCCNc1c(NS(=O)(=O)c2ccc(Cl)s2)c(=O)oc2ccccc12 | -13.7% |  | 
C/C(=C\C(=O)N1CCc2ccccc21)C(=O)O | 23.5% |  | 
Cc1ccc2nc(SCC(=O)NCc3ccco3)nc(=O)n2c1 | -27.8% |  | 32.6 µM [falling, single point]
CCC(C)NC(=O)/C(=C/c1ccco1)c1ccccc1 (configuration not stated) | 1.38% |  | 0.58 µM [falling, single point]
CCOCC(=O)Nc1nc(-c2ccccc2)c(CC)s1 | 37.4% | 18.4 µM [rising, single point] | 
Cc1ccc(C(=O)OCC(=O)NCc2cccs2)s1 | 3% |  | 
COc1ccc(C(c2nnnn2CS(=O)(=O)c2ccc(C)cc2)N2CCN(c3ncccn3)CC2)cc1 (configuration not stated) | 21.5% |  | 23.1 µM [rising, partial curve, poor fit]
Cc1cc(NC(=O)CSc2nnnn2-c2ccccc2F)no1 | -30.3% | 0.92 µM [falling, full curve, poor fit] | 
Cc1ccc(Oc2ccc(Cl)cc2N)cc1 |  | 0.00411 µM [falling, full curve, poor fit] | 0.082 µM [falling, single point]
O=S(=O)(c1cnccc1N1CCN(/N=C/c2ccc(Br)cc2)CC1)N1CCCCC1 | 126% | 3.26 µM [rising, partial curve, poor fit] | 0.116 µM [rising, full curve, poor fit]
CN(C)c1ccc(-c2noc(C3CCN(S(=O)(=O)c4cccc(Cl)c4)CC3)n2)cc1 | -12.5% |  | 1.3 µM [rising, full curve]
CN(c1ccccc1)c1nc(N)c([N+](=O)[O-])c(Nc2ccc(F)cc2)n1 | 66.7% | 32.6 µM [rising, single point] | 
CN1CCN(CCC(=O)N/N=C/c2cc([N+](=O)[O-])ccc2O)CC1 | 9.25% |  | 

Some of the entries above in another layout.
O=S(=O)(c1cnccc1N1CCN(/N=C/c2ccc(Br)cc2)CC1)N1CCCCC1
  cell number change: 126%; AC50 [1]: 3.26 µM [rising, partial curve, poor fit]; AC50 [2]: 0.116 µM [rising, full curve, poor fit]
CN(C)c1ccc(-c2noc(C3CCN(S(=O)(=O)c4cccc(Cl)c4)CC3)n2)cc1
  cell number change: -12.5%; AC50 [2]: 1.3 µM [rising, full curve]
CN(c1ccccc1)c1nc(N)c([N+](=O)[O-])c(Nc2ccc(F)cc2)n1
  cell number change: 66.7%; AC50 [1]: 32.6 µM [rising, single point]
